We go through one substance from paper PMC3819332.

Sequences of proteins named here, by UniProt entry; tags and fusion partners are left off.
UniProt P43354: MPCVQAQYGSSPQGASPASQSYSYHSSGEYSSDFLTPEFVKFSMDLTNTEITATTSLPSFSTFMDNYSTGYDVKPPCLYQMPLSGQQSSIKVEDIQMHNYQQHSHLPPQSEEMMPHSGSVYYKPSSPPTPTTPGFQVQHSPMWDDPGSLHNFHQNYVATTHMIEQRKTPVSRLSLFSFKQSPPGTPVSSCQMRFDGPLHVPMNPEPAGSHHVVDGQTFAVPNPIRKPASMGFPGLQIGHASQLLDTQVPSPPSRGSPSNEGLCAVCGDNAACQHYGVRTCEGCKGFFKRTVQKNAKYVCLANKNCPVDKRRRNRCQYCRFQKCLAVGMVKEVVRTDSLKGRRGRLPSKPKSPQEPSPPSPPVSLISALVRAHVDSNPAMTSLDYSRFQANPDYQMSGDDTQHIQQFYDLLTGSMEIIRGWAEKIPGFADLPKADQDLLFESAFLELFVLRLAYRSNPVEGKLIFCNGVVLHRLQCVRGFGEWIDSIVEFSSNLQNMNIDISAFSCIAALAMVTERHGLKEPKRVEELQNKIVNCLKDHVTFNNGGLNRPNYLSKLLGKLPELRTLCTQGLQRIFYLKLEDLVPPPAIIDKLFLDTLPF
UniProt P09874: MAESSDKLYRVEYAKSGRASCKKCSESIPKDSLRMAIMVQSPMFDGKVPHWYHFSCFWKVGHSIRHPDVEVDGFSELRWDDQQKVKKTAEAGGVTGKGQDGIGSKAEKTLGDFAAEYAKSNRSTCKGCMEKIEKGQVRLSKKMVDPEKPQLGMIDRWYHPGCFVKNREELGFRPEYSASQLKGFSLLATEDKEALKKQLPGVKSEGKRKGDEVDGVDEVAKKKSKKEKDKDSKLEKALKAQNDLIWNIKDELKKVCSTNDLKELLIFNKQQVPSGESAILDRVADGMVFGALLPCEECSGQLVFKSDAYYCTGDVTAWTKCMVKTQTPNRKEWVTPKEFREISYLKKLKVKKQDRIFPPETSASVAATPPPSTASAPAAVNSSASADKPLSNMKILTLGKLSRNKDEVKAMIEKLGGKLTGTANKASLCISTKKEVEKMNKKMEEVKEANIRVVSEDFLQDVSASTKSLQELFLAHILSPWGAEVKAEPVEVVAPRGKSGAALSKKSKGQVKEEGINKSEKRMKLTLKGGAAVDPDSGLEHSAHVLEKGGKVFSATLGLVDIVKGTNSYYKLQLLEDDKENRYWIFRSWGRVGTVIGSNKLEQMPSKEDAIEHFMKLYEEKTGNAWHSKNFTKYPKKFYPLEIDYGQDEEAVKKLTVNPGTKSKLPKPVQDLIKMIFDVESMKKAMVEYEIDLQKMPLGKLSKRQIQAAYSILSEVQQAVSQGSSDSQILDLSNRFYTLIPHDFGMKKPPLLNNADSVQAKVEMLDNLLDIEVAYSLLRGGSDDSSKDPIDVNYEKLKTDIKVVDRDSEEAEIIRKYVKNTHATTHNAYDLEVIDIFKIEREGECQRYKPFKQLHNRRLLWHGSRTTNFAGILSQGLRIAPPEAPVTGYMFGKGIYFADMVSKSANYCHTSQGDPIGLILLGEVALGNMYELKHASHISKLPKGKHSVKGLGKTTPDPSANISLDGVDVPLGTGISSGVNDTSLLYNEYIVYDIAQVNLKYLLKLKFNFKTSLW

Results are given in words; binding and its absence hold for the method and conditions named. Binding seen in cells or lysates may run through a third protein. Some binding calls cover weakened binding; strength is not graded here.

This assay has as its target NR4A2 nuclear receptor, MYC-tagged (MYC-NR4A2) (UniProt P43354). In words: co-IP; COS-1 cells transfected with MYC-NR4A2 and FLAG-PARP1, mock treated or UV irradiated; protein extracts collected 4 hours post UV; precipitated with anti-MYC antibody, immunoblotted with anti-FLAG antibody. For orientation: In western blotting, separated proteins are transferred to a membrane and probed.

Take “PARP1, FLAG-tagged (FLAG-PARP1) (from UniProt P09874 1-1014)”: the binding entry is “binds”.
